For the test, the target named is Recombinant Mammalian expressed G ectodomain (RMG) of RSV A2 (respiratory syncytial virus (RSV) strain A2) (UniProt P03423). The test is described as follows: SPR; RMG captured on a HTG sensor chip via Histidine tag (500 RU); recombinant CX3CR1 5 μg/mL injected at 50 μl/min for 120 s; ProteOn; binding without serum set as 100%; both purified. (In SPR one partner is held on a chip, and binding of the other changes the refractive index at the surface.)

Sequences of proteins named here, by UniProt entry; tags and fusion partners are left off. A change or cut given only in a name is not applied to a line headed by its entry. Residues count along the entry.
UniProt P03423, residues 64-298: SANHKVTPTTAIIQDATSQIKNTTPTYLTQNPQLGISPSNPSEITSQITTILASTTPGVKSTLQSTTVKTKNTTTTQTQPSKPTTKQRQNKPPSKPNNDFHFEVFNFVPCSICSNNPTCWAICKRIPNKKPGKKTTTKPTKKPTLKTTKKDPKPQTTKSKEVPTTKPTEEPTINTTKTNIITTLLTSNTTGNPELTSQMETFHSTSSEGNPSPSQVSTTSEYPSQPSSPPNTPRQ
UniProt P49238: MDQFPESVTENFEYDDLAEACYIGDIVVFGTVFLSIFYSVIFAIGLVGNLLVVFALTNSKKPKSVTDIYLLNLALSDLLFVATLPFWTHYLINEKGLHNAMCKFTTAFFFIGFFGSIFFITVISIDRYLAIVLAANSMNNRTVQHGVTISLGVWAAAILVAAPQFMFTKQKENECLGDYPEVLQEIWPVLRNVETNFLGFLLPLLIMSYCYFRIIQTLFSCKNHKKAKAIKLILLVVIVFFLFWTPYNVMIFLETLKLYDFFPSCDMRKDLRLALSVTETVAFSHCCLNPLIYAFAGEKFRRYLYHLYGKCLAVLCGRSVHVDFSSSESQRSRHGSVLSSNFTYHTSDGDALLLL

These are yes or no findings as the source states them, for the method shown. A result given as binding can be weak or reduced; the word gives no strength.

As for “recombinant CX3CR1 (from UniProt P49238) (receptor)”, the binding entry is recorded as “binds”.

The values above are taken from paper PMC6126872.
